Some of the results follow.
System: T1, CTL2-GFP (C. trachomatis L2/434/Bu, GFP-expressing)
T1 construct: L2/434/Bu, GFP-expressing
Set-up: species or system HeLa; Intracellular C. trachomatis growth in HeLa cells, bulk GFP fluorescence relative to DMSO
Settings: bulk GFP, single well; 28.5 h, 10 µM; inhibitor

Row | SMILES | % of control remaining [%]
1 | COc1ccc2c(c1)Cc1sc(NC(C)=O)nc1-2 [CBK287876] | 117.818
2 | CC(=O)Oc1cccc(CN2CCCN(S(=O)(=O)c3ccc(-c4ccccc4)cc3)CC2)c1 [CBK063113] | 133.27
3 | O=C(c1cscn1)N1CCC2(CCCNC2)C1 (stereo not shown) [CBK153230C] | 115.418
4 | COc1cc(CCN2CCCCC2)c(C(C)n2cncn2)cc1OC (stereo not shown) [CBK023837G] | 107.297
5 | COc1ccc(OCCNC(=O)c2ccc(-c3cccc(N(C)C)c3)nc2N(C)C(C)=O)cc1 [CBK076587] | 111.813
6 | O=C(NCc1cccnc1)c1ccc2c(c1)C(=O)N(Cc1ccco1)C2=O [CBK269675] | 146.677
7 | CCc1nc(N)nc(N2CCCC3(CN(C)C(=O)O3)C2)c1C (stereo not shown) [CBK306914] | 119.99
8 | COc1cc(/C=C2/C(=O)N(c3nnn[nH]3)N=C2C)ccc1OC(=O)c1cccs1 [CBK266641] | 109.434
9 | CCOC(=O)CN1CCN(c2cc(C#N)ccn2)CC1 [CBK306006] | 123.204
10 | CC(C)Oc1ccc(-c2cc(C(=O)NCc3ccncc3)c3ccccc3n2)cc1 [CBK293957] | 111.134
11 | CN(C)S(=O)(=O)N1CC2(CCN(C(=O)[C@@H]3CN(C(=O)C(C)(C)NC(=O)OC(C)(C)C)C[C@H]3c3cc4ccccc4o3)CC2)c2ccccc21 [CBK014088] | 82.1879
12 | CCN(Cc1ccncc1)C(=O)NCC1CCCCC1 [CBK155132] | 112.905
13 | COc1ccccc1N(CC(O)CN1C(=O)NC(C)(C)C1=O)S(=O)(=O)c1ccc(C)cc1 (stereo not shown) [CBK263581] | 113.48
14 | Cc1nc(N)sc1-c1nnc(SCC(=O)Nc2ccccc2C(F)(F)F)n1C [CBK267359] | 151.235
15 | COc1cncc(C(NC(=O)c2ccc3[nH]nnc3c2)[C@H]2C[C@@H](O)C2)c1 (stereo partly shown) [CBK307049] | 94.4174
16 | CCCCNS(=O)(=O)c1ccccc1[N+](=O)[O-] [CBK261456] | 100
17 | Cc1csc2c(C3CCCN(C(=O)c4cnn(C)c4)C3)nc(C)n12 (stereo not shown) [CBK284595] | 118.966
18 | CC1(C)[N+]([O-])=CC(c2ccc(-c3ccccc3)cc2)=[N+]([O-])C1(C)C [CBK267825] | 112.813
19 | O=C1N[C@]2(CCc3ccccc31)CN(Cc1ccccc1)C[C@H]2CO [CBK284795] | 107.134
20 | Cc1cc(C)n(CC(=O)Nc2ccccc2-n2ccnc2)n1 [CBK283079] | 92.1455

Row | SMILES | % of control remaining [%]
21 | O=C(COc1ccc(Cl)cc1Cl)NC(Cc1ccccc1)C(=O)O (stereo not shown) [CBK261061] | 100
22 | COc1cccc(NC(=O)NCc2ccc(F)cc2)c1 [CBK115590] | 111.132
23 | O=S(=O)(Nc1cccc(-c2cnco2)c1)c1cccc2cccnc12 [CBK067104] | 99.1677
24 | C(=C\c1ccccc1)/CNCCCN1CCOCC1 [CBK278195C] | 130.23
25 | Cc1ccc(Cl)cc1NC(=O)OCCN(C)C [CBK016906] | 121.314
26 | CC1CC(C)CN(C(=O)CN2C3CCC2CC(O)(c2ccco2)C3)C1 (stereo not shown) [CBK284032] | 111.419
27 | CCN(CC(C)C#N)C(=O)c1ccc2ccccc2n1 (stereo not shown) [CBK304801] | 86.7918
28 | Cc1c(C(=O)O)sc(S(=O)(=O)N2CCN(C(=O)Cc3ccsc3)CC2)c1C(=O)O [CBK297134] | 151.236
29 | O=C1NCCc2c1[nH]c1ccc(Cl)cc21 [CBK015755] | 149.073
30 | O=C(N[C@H]1CCN2C(=O)N(c3cccc4nsnc34)C(=O)[C@@H]2C1)c1ccnc(Cl)c1 [CBK289545] | 130.973
31 | CS(=O)(=O)N1CCCc2cc(C(=O)O)ccc21 [CBK287072] | 109.038
32 | Cc1ccc(C(C)C)c(OCC(=O)n2nc(C)cc2C)c1 [CBK058196] | 90.2685
33 | O=C(OCCc1cccnc1)N1CCSCC1 [CBK200160] | 160.593
34 | O=C(Nc1ccc2ccccc2c1)c1ccccc1N(Cc1ccccc1)S(=O)(=O)c1ccccc1 [CBK263751] | 100.045
35 | CC(N)C(=O)NC1CCN(c2nc3c(cc2F)c(=O)c(C(=O)O)cn3C23CC(C2)C3)C1 (stereo not shown) [CBK016632] | 13.2266
36 | CCc1nc2c(OCC3CCCCC3)cccn2c1N(C=O)Cc1ccc(OC)cc1 [CBK147811] | 115.317
37 | CC(=O)N1CCc2cc(C(=O)CN3CCOCC3)ccc21 [CBK291105] | 128.096
38 | Cc1cccnc1C1(O)CCN(C(=O)NCc2ccccc2)CC1 [CBK282293] | 135.307
39 | Cc1nc(-c2ccc(CNC(=O)C(Cc3ccccc3)N3CCCC3)cc2)ccc1C(N)=O (stereo not shown) [CBK286017] | 118.878
40 | O=C(O)c1ccn(-c2ccc(NS(=O)(=O)c3ccc(N4CCCC4=O)cc3)cc2)n1 [CBK298327] | 152.409

Rewritten as tab-separated lines: part of the list above
Row	SMILES	% of control remaining [%]
31	CS(=O)(=O)N1CCCc2cc(C(=O)O)ccc21 [CBK287072]	109.038
38	Cc1cccnc1C1(O)CCN(C(=O)NCc2ccccc2)CC1 [CBK282293]	135.307
